Measured values as given in patent publication US20130045962A1, “PEPTIDE DEFORMYLASE INHIBITORS” (priority 2007, published 2013).
pIC50: −log10 of the molar value. Some results were stated once for a whole list of compounds, not compound by compound.

Sequences of proteins named here, by UniProt entry; tags and fusion partners are left off. A change or cut given only in a name is not applied to a line headed by its entry.
UniProt P44786: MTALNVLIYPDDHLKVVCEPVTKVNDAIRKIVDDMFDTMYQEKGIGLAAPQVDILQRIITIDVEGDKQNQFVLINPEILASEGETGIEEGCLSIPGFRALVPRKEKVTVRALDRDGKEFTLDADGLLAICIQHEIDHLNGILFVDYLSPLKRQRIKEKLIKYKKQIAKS

Target: Haemophilus influenzae PDF (Haemophilus influenzae, UniProt P44786)
Assay: PDF IC50 assay (FDH-coupled), H. influenzae PDF
Format: biochemical
Details: read-out: IC50, inhibition of H. influenzae PDF activity

Row | Compound | pIC50
1 | CC(C)[C@H]1CN(C)CCN1c1nc(Cl)nc(NNC(=O)[C@H](CC2CCCC2)CN(O)C=O)c1F [Example 171, [(2R)-3-(2-{2-Chloro-5-fluoro-6-[(2S)-4-methyl-2-(1-methylethyl)-1-piperazinyl]-4-pyrimidinyl}hydrazino)-2-(cyclopentylmethyl)-3-oxopropyl]hydroxyformamide] | ≥ 7.00
2 | CN1CCN(c2nc(Cl)nc(NNC(=O)[C@H](CC3CCCC3)CN(O)C=O)c2F)CC12CC2 [Example 172, [(2R)-3-{2-[2-Chloro-5-fluoro-6-(4-methyl-4,7-diazaspiro[2.5]oct-7-yl)-4-pyrimidinyl]hydrazino}-2-(cyclopentylmethyl)-3-oxopropyl]hydroxyformamide] | ≥ 7.00
3 | C[C@@H]1[C@H](C)N(C)CCN1c1nc(Cl)nc(NNC(=O)[C@H](CC2CCCC2)CN(O)C=O)c1F [Example 173, N-[(2R)-3-(2-{2-Chloro-5-fluoro-6-[(2R,3S)-2,3,4-trimethyl-1-piperazinyl]-4-pyrimidinyl}hydrazino)-2-(cyclopentylmethyl)-3-oxopropyl]-N-hydroxyformamide] | ≥ 7.00
4 | O=CN(O)C[C@@H](CC1CCCC1)C(=O)NNc1nc(Cl)nc(N2CCN3CCC[C@@H]3C2)c1F [Example 174, [(2R)-3-(2-{2-Chloro-5-fluoro-6-[(8aR)-hexahydropyrrolo[1,2-a]pyrazin-2(1H)-yl]-4-pyrimidinyl}hydrazino)-2-(cyclopentylmethyl)-3-oxopropyl]hydroxyformamide] | ≥ 7.00
5 | C[C@@H]1[C@H](C)N(c2nc(Cl)nc(NNC(=O)[C@H](CC3CCCC3)CN(O)C=O)c2F)CCN1C [Example 175, N-[(2R)-3-(2-{2-Chloro-5-fluoro-6-[(2S,3R)-2,3,4-trimethyl-1-piperazinyl]-4-pyrimidinyl}hydrazino)-2-(cyclopentylmethyl)-3-oxopropyl]-N-hydroxyformamide] | ≥ 7.00
6 | CC1(N2CCCC2)CN(c2nc(Cl)nc(NNC(=O)[C@H](CC3CCCC3)CN(O)C=O)c2F)C1 [Example 176, [(2R)-3-(2-{2-Chloro-5-fluoro-6-[3-methyl-3-(1-pyrrolidinyl)-1-azetidinyl]-4-pyrimidinyl}hydrazino)-2-(cyclopentylmethyl)-3-oxopropyl]hydroxyformamide] | ≥ 7.00
7 | Cc1nc(NNC(=O)[C@H](CC2CCCC2)CN(O)C=O)c(F)c(N2CCN3CCC[C@@H]3C2)n1 [Example 177, [(2R)-2-(Cyclopentylmethyl)-3-(2-{5-fluoro-6-[(8aR)-hexahydropyrrolo[1,2-a]pyrazin-2(1H)-yl]-2-methyl-4-pyrimidinyl}hydrazino)-3-oxopropyl]hydroxyformamide] | ≥ 7.00
8 | CCc1nc(NNC(=O)[C@H](CC2CCCC2)CN(O)C=O)c(F)c(N2CCN3CCC[C@@H]3C2)n1 [Example 178, [(2R)-2-(Cyclopentylmethyl)-3-(2-{2-ethyl-5-fluoro-6-[(8aR)-hexahydropyrrolo[1,2-a]pyrazin-2(1H)-yl]-4-pyrimidinyl}hydrazino)-3-oxopropyl]hydroxyformamide] | ≥ 7.00
9 | O=CN(O)C[C@@H](CC1CCCC1)C(=O)NNc1nc(Cl)nc(NC2CCOCC2)c1F [Example 179, [(2R)-3-{2-[2-Chloro-5-fluoro-6-(tetrahydro-2H-pyran-4-ylamino)-4-pyrimidinyl]hydrazino}-2-(cyclopentylmethyl)-3-oxopropyl]hydroxyformamide] | ≥ 7.00
10 | Cc1nc(NNC(=O)[C@H](CC2CCCC2)CN(O)C=O)c(F)c(N2CCN(C)[C@H](C)[C@@H]2C)n1 [Example 180, N-[(2R)-2-(Cyclopentylmethyl)-3-(2-{5-fluoro-2-methyl-6-[(2S,3R)-2,3,4-trimethyl-1-piperazinyl]-4-pyrimidinyl}hydrazino)-3-oxopropyl]-N-hydroxyformamide] | ≥ 7.00
11 | Cc1nc(NNC(=O)[C@H](CC2CCCC2)CN(O)C=O)c(F)c(N2CCN(C)[C@@H](C)[C@H]2C)n1 [Example 181, N-[(2R)-2-(Cyclopentylmethyl)-3-(2-{5-fluoro-2-methyl-6-[(2R,3S)-2,3,4-trimethyl-1-piperazinyl]-4-pyrimidinyl}hydrazino)-3-oxopropyl]-N-hydroxyformamide] | ≥ 7.00
12 | Cc1nc(NNC(=O)[C@H](CC2CCCC2)CN(O)C=O)c(F)c(N2CC(C)(N3CCCC3)C2)n1 [Example 182, [(2R)-2-(Cyclopentylmethyl)-3-(2-{5-fluoro-2-methyl-6-[3-methyl-3-(1-pyrrolidinyl)-1-azetidinyl]-4-pyrimidinyl}hydrazino)-3-oxopropyl]hydroxyformamide] | ≥ 7.00
13 | CCCC[C@H](CN(O)C=O)C(=O)NNc1nc(Cl)nc(N2CCN(C)C[C@H]2C)c1F [Example 183, {(2R)-2-[(2-{2-Chloro-6-[(2R)-2,4-dimethyl-1-piperazinyl]-5-fluoro-4-pyrimidinyl}hydrazino)carbonyl]hexyl}hydroxyformamide] | ≥ 7.00
14 | CSc1nc(NNC(=O)[C@H](CC2CCCC2)CN(O)C=O)c(F)c(N2CC(C)(N(C)C)C2)n1 [Example 185, ((2R)-2-(Cyclopentylmethyl)-3-{2-[6-[3-(dimethylamino)-3-methyl-1-azetidinyl]-5-fluoro-2-(methylthio)-4-pyrimidinyl]hydrazino}-3-oxopropyl)hydroxyformamide] | ≥ 7.00
15 | Cc1nc(NNC(=O)[C@H](CC2CCCC2)CN(O)C=O)c(F)c(N2C[C@@H]3C4CCC(O4)[C@@H]3C2)n1 [Example 186, [(2R)-2-(Cyclopentylmethyl)-3-(2-{5-fluoro-2-methyl-6-[(cis)-10-oxa-4-azatricyclo[5.2.1.0^2,6]dec-4-yl]-4-pyrimidinyl}hydrazino)-3-oxopropyl]hydroxyformamide] | ≥ 7.00
16 | O=CN(O)C[C@@H](CC1CCCC1)C(=O)NNc1nc(Cl)nc(N2C[C@@H]3C4CCC(O4)[C@@H]3C2)c1F [Example 187, [(2R)-3-(2-{2-Chloro-5-fluoro-6-[(cis)-10-oxa-4-azatricyclo[5.2.1.0^2,6]dec-4-yl]-4-pyrimidinyl}hydrazino)-2-(cyclopentylmethyl)-3-oxopropyl]hydroxyformamide] | ≥ 7.00
17 | Cc1nc(NNC(=O)[C@H](CC2CCCC2)CN(O)C=O)c(F)c(N2CCN3CCCC[C@@H]3C2)n1 [Example 188, [(2R)-2-(Cyclopentylmethyl)-3-(2-{5-fluoro-2-methyl-6-[(9aR)-octahydro-2H-pyrido[1,2-a]pyrazin-2-yl]-4-pyrimidinyl}hydrazino)-3-oxopropyl]hydroxyformamide] | ≥ 7.00
18 | CN(C)C1([C@@H]2CCCN2c2nc(Cl)nc(NNC(=O)[C@H](CC3CCCC3)CN(O)C=O)c2F)CC1 [Example 189, [(2R)-3-[2-(2-Chloro-6-{(2S)-2-[1-(dimethylamino)cyclopropyl]-1-pyrrolidinyl}-5-fluoro-4-pyrimidinyl)hydrazino]-2-(cyclopentylmethyl)-3-oxopropyl]hydroxyformamide] | ≥ 7.00
19 | Cc1nc(NNC(=O)[C@H](CC2CCCC2)CN(O)C=O)c(F)c(N(C)CCc2ccncc2)n1 [Example 190, N-{(2R)-2-(Cyclopentylmethyl)-3-[2-(5-fluoro-2-methyl-6-{methyl[2-(4-pyridinyl)ethyl]amino}-4-pyrimidinyl)hydrazino]-3-oxopropyl}-N-hydroxyformamide] | ≥ 7.00
20 | O=CN(O)C[C@@H](CC1CCCC1)C(=O)NNc1nc(Cl)nc(NCc2nccs2)c1F [Example 191, [(2R)-3-(2-{2-Chloro-5-fluoro-6-[(1,3-thiazol-2-ylmethyl)amino]-4-pyrimidinyl}hydrazino)-2-(cyclopentylmethyl)-3-oxopropyl]hydroxyformamide] | ≥ 7.00
21 | CN(Cc1nccs1)c1nc(Cl)nc(NNC(=O)[C@H](CC2CCCC2)CN(O)C=O)c1F [Example 192, [(2R)-3-(2-{2-Chloro-5-fluoro-6-[methyl(1,3-thiazol-2-ylmethyl)amino]-4-pyrimidinyl}hydrazino)-2-(cyclopentylmethyl)-3-oxopropyl]hydroxyformamide] | ≥ 7.00
22 | CN1CCCC[C@H](Nc2nc(Cl)nc(NNC(=O)[C@H](CC3CCCC3)CN(O)C=O)c2F)C1=O [Example 193, [(2R)-3-[2-(2-Chloro-5-fluoro-6-{[(3S)-1-methyl-2-oxohexahydro-1H-azepin-3-yl]amino}-4-pyrimidinyl)hydrazino]-2-(cyclopentylmethyl)-3-oxopropyl]hydroxyformamide] | ≥ 7.00
23 | COC[C@H]1CCCN1c1nc(Cl)nc(NNC(=O)[C@H](CC2CCCC2)CN(O)C=O)c1F [Example 194, [(2R)-3-[2-(2-Chloro-5-fluoro-6-{(2R)-2-[(methyloxy)methyl]-1-pyrrolidinyl}-4-pyrimidinyl)hydrazino]-2-(cyclopentylmethyl)-3-oxopropyl]hydroxyformamide] | ≥ 7.00
24 | C[C@@H]1[C@@H](C)N(c2nc(Cl)nc(NNC(=O)[C@H](CC3CCCC3)CN(O)C=O)c2F)CCN1C [Example 198, N-[(2R)-3-(2-{2-Chloro-5-fluoro-6-[(2R,3R)-2,3,4-trimethyl-1-piperazinyl]-4-pyrimidinyl}hydrazino)-2-(cyclopentylmethyl)-3-oxopropyl]-N-hydroxyformamide] | ≥ 7.00
25 | CCC1(O)CN(c2nc(Cl)nc(NNC(=O)[C@H](CC3CCCC3)CN(O)C=O)c2F)C1 [Example 199, [(2R)-3-{2-[2-Chloro-6-(3-ethyl-3-hydroxy-1-azetidinyl)-5-fluoro-4-pyrimidinyl]hydrazino}-2-(cyclopentylmethyl)-3-oxopropyl]hydroxyformamide] | ≥ 7.00
26 | O=CN(O)C[C@@H](CC1CCCC1)C(=O)NNc1nc(Cl)nc(N2C[C@H]3COC[C@H]3C2)c1F [Example 200, [(2R)-3-{2-[2-Chloro-5-fluoro-6-(tetrahydro-1H-furo[3,4-c]pyrrol-5(3H)-yl)-4-pyrimidinyl]hydrazino}-2-(cyclopentylmethyl)-3-oxopropyl]hydroxyformamide] | ≥ 7.00
27 | CCCC[C@H](CN(O)C=O)C(=O)NNc1nc(Cl)nc(N2CCN3CCCC[C@@H]3C2)c1F [Example 201, {(2R)-2-[(2-{2-Chloro-5-fluoro-6-[(9aR)-octahydro-2H-pyrido[1,2-a]pyrazin-2-yl]-4-pyrimidinyl}hydrazino)carbonyl]hexyl}hydroxyformamide] | ≥ 7.00
